Source: PubChem BioAssay AID1259425 (University of Nebraska Medical Center, 2018)
This is an unselected part of about 14,000 reagents. A reagent listed more than once was tested more than once; the source does not tell the runs apart. No sequences are given here. Not stated in the record: the time to read-out.

Aim: 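Find knockdowns that reproduce the gene expression pattern seen when KSR1 is lost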 (primary screen)
Cell system: HCT116 human colon cancer cells
Reagents: siRNA pool against human genes, 50 nM siRNA
Read-out: 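After 50 nM siRNA pool, branched-DNA assay measures six marker transcripts per well, minus blank, normalised to the geometric mean of two housekeeping transcripts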
Reading the numbers: BNIP3L mRNA: higher = more BNIP3L transcript after knockdown; NDRG1 mRNA: higher = more NDRG1 transcript after knockdown; BNIP3 mRNA: higher = more BNIP3 transcript after knockdown; ALDOC mRNA: higher = more ALDOC transcript after knockdown; ACSL5 mRNA: higher = more ACSL5 transcript after knockdown

no.	target	PubChem SID	BNIP3L mRNA, set 1	NDRG1 mRNA, set 1	BNIP3 mRNA, set 1	ALDOC mRNA, set 1	ACSL5 mRNA, set 1
1	GLE1 (GLE1 RNA export mediator)	SID363992757	0.0534	0.21	0.296	0.0111	0.0949
2	DAAM1 (dishevelled associated activator of morphogenesis 1)	SID363999242	0.13	0.109	0.191	0.0534	0.119
3	RPF2 (ribosome production factor 2 homolog)	SID364003826	0.187	0.615	0.301	0.0775	0.397
4	XRCC3 (X-ray repair cross complementing 3)	SID363996338	0.0982	0.127	0.296	0.0368	0.103
5	ZNF608 (zinc finger protein 608)	SID364005291	0.135	0.19	0.199	0.03	0.306
6	CIRSR (corepressor of RBPJ and splicing regulator)	SID363995832	0.0851	0.363	0.295	0.0177	0.141
7	GPR146 (G protein-coupled receptor 146)	SID364004560	0.092	0.212	0.204	0.0152	0.25
8	ZMYND11 (zinc finger MYND-type containing 11)	SID363997412	0.0898	0.11	0.213	0.0147	0.08
9	AIF1L (allograft inflammatory factor 1 like)	SID364003612	0.355	0.312	0.325	0.19	0.269
10	KIAA1586	SID364005307	0.112	0.098	0.507	0.0317	0.175
11	GABRA4 (gamma-aminobutyric acid type A receptor subunit alpha4)	SID363992099	0.0643	0.186	0.255	0.0199	0.283
12	USP47 (ubiquitin specific peptidase 47)	SID364000663	0.0378	0.0705	0.291	0.0151	0.06
13	EIF3FP2	SID364003714	0.127	0.249	0.373	0.0449	0.219
14	RHBG (Rh family B glycoprotein)	SID364001671	0.289	0.84	0.262	0.0407	0.418
15	LDLR (low density lipoprotein receptor)	SID363991850	0.0806	0.131	0.23	0.0345	0.167
16	SLIT2 (slit guidance ligand 2)	SID363995743	0.0243	0.165	0.196	0.0218	0.09
17	CAAP1 (caspase activity and apoptosis inhibitor 1)	SID364003093	0.144	0.126	0.277	0.0974	0.233
18	PUM2 (pumilio RNA binding family member 2)	SID363999411	0.0983	0.202	0.32	0.017	0.232
19	NPR2 (natriuretic peptide receptor 2)	SID363992192	0.0693	0.156	0.198	0.00649	0.177
20	NPR2 (natriuretic peptide receptor 2)	SID363992192	0.154	0.277	0.25	0.0364	0.152
21	ZNF484 (zinc finger protein 484)	SID364005190	0.159	0.147	0.316	0.112	0.341
22	TNP1 (transition protein 1)	SID363994403	0.0644	0.274	0.377	0.0262	0.139
23	PRL (prolactin)	SID363992232	0.0747	0.165	0.319	0.0231	0.0916
24	PDLIM2 (PDZ and LIM domain 2)	SID364002154	0.106	0.261	0.193	0.0114	0.177
25	CDK11B (cyclin dependent kinase 11B)	SID363993006	0.0861	0.11	0.404	0.0146	0.23
26	LPAR2 (lysophosphatidic acid receptor 2)	SID363995679	0.181	0.167	0.231	0.0457	0.229
27	TRPC3	SID363994423	0.0469	0.194	0.235	0.00956	0.0795
28	CORO1B (coronin 1B)	SID364001699	0.559	2.16	1.84	0.41	0.234
29	EMCN (endomucin)	SID363999975	0.146	0.137	0.299	0.0656	0.101
30	CETN2 (centrin 2)	SID363995332	0.0666	0.226	0.296	0.0325	0.159

In a second layout: results already given
target,PubChem SID,"BNIP3L mRNA, set 1","NDRG1 mRNA, set 1","BNIP3 mRNA, set 1","ALDOC mRNA, set 1","ACSL5 mRNA, set 1"
TRPC3,SID363994423,0.0469,0.194,0.235,0.00956,0.0795
CORO1B (coronin 1B),SID364001699,0.559,2.16,1.84,0.41,0.234

The list goes on.
no.	target	PubChem SID	BNIP3L mRNA, set 1	NDRG1 mRNA, set 1	BNIP3 mRNA, set 1	ALDOC mRNA, set 1	ACSL5 mRNA, set 1
31	CUX1 (cut like homeobox 1)	SID363993126	0.104	0.065	0.322	0.0143	0.0452
32	PTPRN (protein tyrosine phosphatase receptor type N)	SID363994002	0.0622	0.0858	0.203	0.0145	0.13
33	CLPTM1 (CLPTM1 regulator of GABA type A receptor forward trafficking)	SID363992578	0.109	0.0832	0.292	0.0173	0.0997
34	IGF1 (insulin like growth factor 1)	SID363991936	0.107	0.215	0.242	0.0267	0.127
35	TESK1 (testis associated actin remodelling kinase 1)	SID363997107	0.0957	0.176	0.318	0.0196	0.125
36	RIN2 (Ras and Rab interactor 2)	SID364001314	0.092	0.496	0.325	0.0259	0.153
37	SPAG7 (sperm associated antigen 7)	SID363995840	0.171	0.422	0.581	0.0673	0.102
38	WNT5B (Wnt family member 5B)	SID364003428	0.085	0.28	0.335	0.0261	0.103
39	EMC4 (ER membrane protein complex subunit 4)	SID364000117	0.141	0.267	0.353	0.00678	0.195
40	PROCR (protein C receptor)	SID363997215	0.0548	0.0806	0.273	0.00888	0.119
41	INSRR (insulin receptor related receptor)	SID363998656	0.0933	0.0467	0.282	0.0301	0.152
42	NSUN7 (NOP2/Sun RNA methyltransferase family member 7)	SID364002969	0.178	0.166	0.416	0.044	0.174
43	CD40 (CD40 molecule)	SID363992535	0.103	0.0848	0.111	0.00607	0.101
44	SCAPER (S-phase cyclin A associated protein in the ER)	SID364001861	0.0941	0.0833	0.278	0.0201	0.215
45	RAP1A (RAP1A, member of RAS oncogene family)	SID363994040	0.115	0.115	0.268	0.0221	0.0973
46	FAAH (fatty acid amide hydrolase)	SID363992703	0.0797	0.0762	0.335	0.0359	0.148
47	INSM2 (INSM transcriptional repressor 2)	SID364004082	0.0606	0.244	0.275	0.0131	0.208
48	GGPS1 (geranylgeranyl diphosphate synthase 1)	SID363995789	0.136	0.149	0.286	0.0463	0.172
49	SIX6 (SIX homeobox 6)	SID363998016	0.155	0.244	0.222	0.0134	0.223
50	MFAP4 (microfibril associated protein 4)	SID363993582	0.0958	0.269	0.354	0.0245	0.156
